In all, about 320,000 compounds went through this assay and about 22,000 (6.9%) were called active. The inconclusive results got no clear call from the source; some entries with a clear call stand among them for comparison. The call rests on the fitted dose curve; in most records, active means well fitted inhibition curve with a large enough effect; inconclusive means small, poorly fitted or top-dose-only effect, or another doubt; inactive means no such curve, though single readings can be large or run the other way. A potency beside an inconclusive call is a rough fit, not a confirmed value.
Test: Primary qHTS for delayed death inhibitors of the malarial parasite plastid, 96 hour incubation
Details: P. falciparum luciferase reporter growth; series mostly up to 28.7 µM; activity change, negative = inhibition: at the top concentration
Outline: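 Delayed-death screen, second-generation endpoint: infected erythrocytes, 2% hematocrit, 0.05% parasitemia final; 96 hours at 37 C, 5% CO2; luciferase detection reagent; luminescence decrease equals reduced growth.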
On the % scale 0 is the no-effect control and ±100 the full control effect; potency means the concentration at half of the fitted maximal effect.

Compound | Potency | activity change, negative = inhibition
Cc1[nH]c2ccccc2c1C(Nc1nccs1)c1ccncc1 (centres undefined) | inconclusive: 18.5 µM [inhibitor, single point] | 
CCCCOC(=O)c1ccc(-c2ccc(/C=N/NC(=S)NCC)o2)cc1 | inconclusive: 2.62 µM [inhibitor, full curve, poor fit] | 
CCOC(=O)C1CCN(Cc2ccc(OC)c(C)c2OC)CC1 | inconclusive: 7.38 µM [inhibitor, partial curve] | 
CC1CCC(C(C)C)C(OCC(O)CN2CCCC(C)C2)C1 (centres undefined) | active: 13.1 µM | 
O=C(CCCOc1ccc(Cl)cc1Cl)N/N=C/c1ccccc1O | inconclusive: 4.15 µM [inhibitor, single point] | 
COc1ccc(CNC(=O)C(c2ccncc2)N(C(=O)Cc2cccs2)c2ccccc2C)cc1 (centres undefined) |  | inactive: 6.87%
CC1Cc2ccccc2N1S(=O)(=O)c1cccs1 (centres undefined) | inconclusive: 10.4 µM [inhibitor, single point] | 
CC(=O)Nc1ccc(S(=O)(=O)Nc2nccc(/C=C/c3ccc(Cl)cc3)n2)cc1 | inconclusive: 11.7 µM [inhibitor, single point] | 
CC(=O)Nc1ccc(S(=O)(=O)NNC(=S)NCc2ccco2)cc1 | inconclusive: 18.5 µM [inhibitor, single point] | 
COc1ccc(CN(C(=O)CCC(=O)Nc2cc(C)on2)C(C(=O)NC(C)(C)C)c2cccc(OC)c2OC)cc1 (centres undefined) |  | inactive: -24.8%
COc1ccccc1CCC(=O)NCCCn1ccc2ccccc21 |  | inactive: -21.9%
CN(CC(=O)Nc1cccc(F)c1)CC(=O)N(C)CC(=O)Nc1ccccc1Br | inconclusive: 18.5 µM [inhibitor, single point] | 
CCN(CC(=O)Nc1ccccc1C(F)(F)F)C(=O)c1ccc2c(c1)NC(=O)CS2 | inconclusive: 18.5 µM [inhibitor, partial curve, poor fit] | 
O=[N+]([O-])c1ccc(S(=O)(=O)N2CCN=C2SCc2ccc(F)cc2)cc1 | inconclusive: 18.5 µM [inhibitor, single point] | 
NC(=O)Cn1cnc(-c2ccccc2)c1 | inconclusive: 2.33 µM [inhibitor, partial curve, poor fit] | 
COc1ccc(/C=C2\N=C(C)OC2=O)cc1[N+](=O)[O-] | inconclusive: 18.5 µM [inhibitor, single point] | 
CCOc1ccc(N(CC)C(=O)c2nn(-c3ccc(OC)cc3)c(=O)c3c2c2ccccc2n3C)cc1 | inconclusive: 8.28 µM [inhibitor, partial curve, poor fit] | 
O=C(Oc1cccc(Cl)c1)N1CCOCC1 | inconclusive: 18.5 µM [inhibitor, partial curve, poor fit] | 
Cc1cc(C)c2c(N)c(C(=O)c3ccccc3)sc2n1 |  | inactive: 0%
Oc1ccccc1C(=S)N1CCCC1 | inconclusive: 4.15 µM [inhibitor, single point] | 
COC(=O)c1ccc(-n2c(CCC(=O)O)ccc2-c2ccccc2)cc1 | active: 3.7 µM | 
O=C(COc1coc(CN2CCCc3ccccc32)cc1=O)Nc1cccc([N+](=O)[O-])c1 | active: 6.57 µM | 

Compound | Potency | activity change, negative = inhibition
CC(NC(=O)CCn1c(=S)[nH]c2ccsc2c1=O)c1ccccc1 (centres undefined) | inconclusive: 18.5 µM [inhibitor, single point] | 
COc1ccc(Cl)cc1NC(=O)NCc1ccccn1 |  | inactive: 93.8%
CC(=O)OCCN(CCCn1c(-c2ccncc2)nc2ccccc21)c1nc(-c2ccc(C)cc2)cs1 | inconclusive: 11.7 µM [inhibitor, single point] | 
Cc1ccc(/C=N/NC(=O)c2cc3ccccc3cc2O)o1 | inconclusive: 2.33 µM [inhibitor, partial curve] | 
COc1ccc([N+](=O)[O-])cc1NC(=O)Cn1ccc(C(F)(F)F)n1 |  | inactive: -24.6%
CCc1oc2c(C)c(O)ccc2c(=O)c1-c1ccc2ccccc2n1 | inconclusive: 0.586 µM [inhibitor, full curve, poor fit] | 
COc1ccc(NC(=O)CSc2nc3ccsc3c(=O)n2CCC(=O)O)c(OC)c1 |  | inactive: 96.1%
Cc1cc(N2CCOCC2)nc2ccc(NC(=O)CCC(=O)N3CCCC(C)C3)cc12 (centres undefined) | inconclusive: 5.86 µM [inhibitor, partial curve, poor fit] | 
COc1cc(C(=O)NCCC(=O)NCc2c(F)cc(F)cc2F)cc(OC)c1OC | inconclusive: 14.7 µM [inhibitor, partial curve, poor fit] | 
CCOc1ccc(OCCCC(=O)N(CC)CC(=O)Nc2c(F)cccc2F)cc1 | inconclusive: 14.7 µM [inhibitor, single point] | 
COCCNC(=O)C1(S(=O)(=O)c2ccccc2)CC=CC1 |  | inactive: 37.6%
Cc1ccc2c(Cl)cc(Cl)c(OCC(=O)Nc3ccc(C)c(S(=O)(=O)N(C)C)c3)c2n1 |  | inactive: -29.4%
O=C(Cn1ncc2c3ccccc3n(Cc3ccccc3)c2c1=O)NCc1ccco1 | inconclusive: 11.7 µM [inhibitor, single point] | 
COc1ccnc(Oc2cccc(C(F)(F)F)c2)c1C(=O)N/C=N/OCc1ccccc1F | inconclusive: 2.33 µM [inhibitor, full curve, poor fit] | 
Cc1cc(SCc2cccc([N+](=O)[O-])c2)nc(=O)[nH]1 | inconclusive: 10.4 µM [inhibitor, single point] | 
CC1Sc2ccc(C(=O)Nc3ccc(S(=O)(=O)N(C)C)cc3)cc2NC1=O (centres undefined) | inconclusive: 9.28 µM [inhibitor, partial curve] | 
CC1CCCCC1NS(=O)(=O)c1ccc(S(=O)(=O)NCc2ccncc2)cc1 (centres undefined) | inconclusive: 4.15 µM [inhibitor, single point] | 
O=C(C1=C[C@H](C2CC2)C[C@H](OCc2ccc(CO)cc2)O1)N1CCOCC1 |  | inactive: 1.04%
Nc1nc(SCc2ccccc2Cl)ns1 |  | inactive: 4.31%
COc1cccc2cc(C(C)N(CCCN3CCOCC3)C(=S)Nc3cccc(C)c3)oc12 (centres undefined) | inconclusive: 13.1 µM [inhibitor, single point] | 
O=C(Nc1ccc(Oc2cccc(C(F)(F)F)c2)nc1)c1ccco1 | active: 13.1 µM | 
COc1ccc(N2CCN(C(=O)c3ccc(CNS(=O)(=O)c4cc(C)ccc4C)cc3)CC2)cc1 |  | inactive: -1.36%

Whole records from above:
COc1cc(C(=O)NCCC(=O)NCc2c(F)cc(F)cc2F)cc(OC)c1OC is entered as Potency: inconclusive: 14.7 µM [inhibitor, partial curve, poor fit]
CCOc1ccc(OCCCC(=O)N(CC)CC(=O)Nc2c(F)cccc2F)cc1 is entered as Potency: inconclusive: 14.7 µM [inhibitor, single point]

From PubChem BioAssay AID504834 (National Center for Advancing Translational Sciences (NCATS), 2011)
